# Laboratory results taken from PubChem BioAssay AID493014 (National Center for Advancing Translational Sciences (NCATS), 2011).
# This is one part of the list. These are further read-outs of the screen, such as a control signal, another cell line or another target. No call is given for them. The list favours compounds with an active or inconclusive main result. Words in brackets tell the shape of the fitted curve; partial curves, single points and poor fits give uncertain potencies.
# Test: qHTS Assay to Find Inhibitors of Chronic Active B-Cell Receptor Signaling
# Details: ABC-DLBCL IkBa-CBG/CBR reporter, luminescence ratio (green luciferase fused to IkBa over red control in TMD8 lymphoma cells), 4 h
# Procedure, shortened: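 Compounds up to 46 uM were incubated four hours with TMD8 cells whose green CBG68 luciferase is fused to IkappaBalpha; red CBR luminescence normalised the signal, and concentration-effect curves were fitted to fusion, red and ratio data.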
# [1] = measured here: CBR red luminescence, cell number
# [2] = measured here: IkBa-CBG green luminescence
SMILES,AC50 [1],AC50 [2]
O=C(CNC(=O)c1ccccc1F)NC1CCN(Cc2ccccc2)CC1,"5.01 µM [rising, partial curve, poor fit]",
O=C(CCSCc1ccccc1Cl)NC1CCCC1,"29.1 µM [rising, single point]",
CC1SCC(=O)N(CC(=O)NCCc2ccccc2)C1=O (stereo unspecified),"5.01 µM [rising, single point]",
C(=N\Nc1nc2ccccc2[nH]1)/C1CCCCC1,,"35.5 µM [falling, partial curve, poor fit]"
CC1CCCN(CCCNC(=O)c2cc3c(s2)-c2ccccc2OC3)C1 (stereo unspecified),"10 µM [falling, partial curve, poor fit]",
Cc1c(NC(=O)c2cc(-c3ccc(F)cc3)on2)c(=O)n(-c2ccccc2)n1C,"22.4 µM [falling, partial curve, poor fit]",
CC(C)=CCC[C@](C)(O)C1CC[C@]2(C)C1[C@H](O)CC1[C@@]3(C)CC[C@H](O[C@@H]4O[C@H](CO)[C@@H](O)[C@H](O)[C@H]4O[C@@H]4O[C@H](CO)[C@@H](O)[C@H](O)[C@H]4O)C(C)(C)C3CC[C@]12C (stereo partly specified),"10.3 µM [rising, partial curve]",
Clc1cccc(-c2nc(-c3ccccn3)no2)c1,"17.8 µM [falling, partial curve, poor fit]",
O=C(Nc1sc2c(c1C(=O)O)CCCC2)c1cccc(Cl)c1,"0.112 µM [falling, full curve]",
O=C(CNC(=S)NC(=O)c1cccs1)c1ccccc1,"3.66 µM [rising, partial curve, poor fit]",
Cc1ccc(CC2C(=O)N(c3ccc(C)cc3)C(=O)C2C)cc1 (stereo unspecified),"11.2 µM [rising, partial curve, poor fit]",
O=C(CCNC(=O)c1ccc([N+](=O)[O-])cc1)Nc1cc(Cl)ccc1N1CCOCC1,,"16.4 µM [falling, partial curve, poor fit]"
Cc1ccc(C)c(N(CC(=O)NC2CCCC2)C(=O)c2cc3cc4cccc(C)c4nc3s2)c1,"28.2 µM [rising, partial curve, poor fit]",
O=C(CCC1CCCCC1)NCCN1C2=NC[C@@H](Cc3ccccc3)N2C[C@H]1Cc1ccc(O)cc1,"35.5 µM [falling, single point]",
Cc1ccc(/C=N/Nc2nncn2N)cc1,"35.5 µM [falling, single point]",
Cc1ccc(C(=O)N2CCCC(c3ccccc3)=N2)cc1,"0.631 µM [falling, full curve, poor fit]",
O=[N+]([O-])C(=C1Nc2ccccc2N1)C(Cl)=C(Cl)Cl,"3.55 µM [falling, partial curve, poor fit]",
CCCCNC(=S)NCc1ccc2c(c1)cc(C)n2C,"29.1 µM [rising, single point]",
Cn1c(=O)n(CC(N)=O)c2ccccc21,"6.51 µM [falling, single point]",
CCN(CC)CCn1c(NC(=O)c2ccc(Cl)cc2)nc2ccccc21,"18.4 µM [falling, single point]",

# A stretch of the results above:
SMILES,AC50 [1],AC50 [2]
O=C(Nc1sc2c(c1C(=O)O)CCCC2)c1cccc(Cl)c1,"0.112 µM [falling, full curve]",
O=C(CNC(=S)NC(=O)c1cccs1)c1ccccc1,"3.66 µM [rising, partial curve, poor fit]",
Cc1ccc(CC2C(=O)N(c3ccc(C)cc3)C(=O)C2C)cc1 (stereo unspecified),"11.2 µM [rising, partial curve, poor fit]",
O=C(CCNC(=O)c1ccc([N+](=O)[O-])cc1)Nc1cc(Cl)ccc1N1CCOCC1,,"16.4 µM [falling, partial curve, poor fit]"
Cc1ccc(C)c(N(CC(=O)NC2CCCC2)C(=O)c2cc3cc4cccc(C)c4nc3s2)c1,"28.2 µM [rising, partial curve, poor fit]",
O=C(CCC1CCCCC1)NCCN1C2=NC[C@@H](Cc3ccccc3)N2C[C@H]1Cc1ccc(O)cc1,"35.5 µM [falling, single point]",
Cc1ccc(/C=N/Nc2nncn2N)cc1,"35.5 µM [falling, single point]",
Cc1ccc(C(=O)N2CCCC(c3ccccc3)=N2)cc1,"0.631 µM [falling, full curve, poor fit]",
O=[N+]([O-])C(=C1Nc2ccccc2N1)C(Cl)=C(Cl)Cl,"3.55 µM [falling, partial curve, poor fit]",
CCCCNC(=S)NCc1ccc2c(c1)cc(C)n2C,"29.1 µM [rising, single point]",
Cn1c(=O)n(CC(N)=O)c2ccccc21,"6.51 µM [falling, single point]",

# More structures:

SMILES,AC50 [1],AC50 [2]
Cn1c(SCC(=O)N/N=C/C=C/c2ccco2)nc2ccccc21,,"20.6 µM [falling, single point]"
CN(C)C(=O)c1ccc(-c2cc3onc(-c4ccccc4)c3c(=O)n2C)cc1,"29.1 µM [falling, single point]",
COc1cccc(NC(=O)n2ncc3c(C)cccc32)c1,"8.91 µM [falling, partial curve]",
CC1(C)CC(=O)C2=C(C1)OC(N)=C(C#N)C21CCN(C(=O)OCc2ccccc2)CC1,"0.517 µM [rising, full curve, poor fit]",
Cc1ccccc1NC(=O)NCCCCc1ccccc1,"10 µM [falling, partial curve]",
O=C(NCC1CCCO1)c1coc2nc3ccccc3nc12 (stereo unspecified),"25.1 µM [falling, single point]",
COc1ccc(C)cc1NC(=O)C(=O)c1cn(CC(=O)N2CCCC2)c2ccccc12,"3.16 µM [falling, full curve]",
CCn1c(O)c(N=NC(=S)NCC2CCCO2)c2ccccc21 (stereo unspecified),"17.8 µM [rising, single point]","3.55 µM [falling, partial curve, poor fit]"
O=C(Nc1ccon1)c1cccc(Cl)c1,"6.51 µM [falling, single point]",
COc1ccc(/C(C#N)=C/c2cccnc2)cc1,"3.16 µM [rising, full curve, poor fit]",
COc1ccc(NC(=O)CN(C)C(=O)c2cccc3ccccc23)cc1,"13 µM [rising, partial curve, poor fit]",
O=C(Nc1nc2ccc3ccccc3c2s1)c1ccc(N2CCCCC2)c([N+](=O)[O-])c1,"8.2 µM [falling, partial curve]",
CCOC(=O)c1cccc(NC(=O)c2ccco2)c1,"6.51 µM [falling, partial curve, poor fit]",
Cc1ccc(NS(=O)(=O)c2ccccc2F)cc1S(=O)(=O)N1CCCCCC1,"13 µM [falling, partial curve, poor fit]",
CCCC(=O)C1=C(c2ccccc2)C(C#N)(C#N)C(C#N)=C1N,"17.8 µM [falling, single point]",
Cn1cccc1-c1nc2ccc(NC(=O)c3cccs3)cc2[nH]1,"5.17 µM [falling, full curve, poor fit]",
COc1cc2c(cc1NC(=O)CN(C)Cc1ccc(OC)c(OC)c1)oc1ccccc12,"1.03 µM [falling, full curve]",
CC(=O)c1ccc(OC(=O)c2nc(-c3ccccc3)oc2C)cc1,"5.62 µM [rising, single point]",
CN(C)CC(O)COc1ccc(C(C)(C)c2ccc(OCC(O)CN(C)C)cc2)cc1 (stereo unspecified),"20 µM [falling, partial curve, poor fit]",
CCOc1ccc(Nc2oc(-c3ccco3)nc2C#N)cc1,"6.31 µM [rising, single point]",
